Results from patent publication US9340584.
No constants are given. Whether binding was seen depends on the method and setting. Some entries that bind do so weakly or less than the wild type. For part of these data: Where a sequence is shown, tags or fusion partners need not be part of it.

Amino acid sequences for entries named in this document (tags omitted). Residues count along the entry.
UniProt P02768, residues 25-609: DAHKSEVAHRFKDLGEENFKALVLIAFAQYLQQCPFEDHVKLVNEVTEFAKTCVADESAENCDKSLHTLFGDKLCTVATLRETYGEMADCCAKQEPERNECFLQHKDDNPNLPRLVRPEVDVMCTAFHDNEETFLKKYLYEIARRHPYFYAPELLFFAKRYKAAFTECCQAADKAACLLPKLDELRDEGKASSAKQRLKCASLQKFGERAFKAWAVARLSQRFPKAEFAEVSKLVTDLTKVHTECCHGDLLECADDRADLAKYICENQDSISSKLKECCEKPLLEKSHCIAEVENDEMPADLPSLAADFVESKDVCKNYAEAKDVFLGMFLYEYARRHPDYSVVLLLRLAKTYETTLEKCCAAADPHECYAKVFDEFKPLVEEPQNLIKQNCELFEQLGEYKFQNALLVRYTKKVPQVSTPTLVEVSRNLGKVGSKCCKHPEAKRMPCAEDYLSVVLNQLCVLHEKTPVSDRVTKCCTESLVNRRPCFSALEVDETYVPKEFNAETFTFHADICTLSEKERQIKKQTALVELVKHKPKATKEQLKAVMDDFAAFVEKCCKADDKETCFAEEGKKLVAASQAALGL
UniProt P07724, residues 25-608: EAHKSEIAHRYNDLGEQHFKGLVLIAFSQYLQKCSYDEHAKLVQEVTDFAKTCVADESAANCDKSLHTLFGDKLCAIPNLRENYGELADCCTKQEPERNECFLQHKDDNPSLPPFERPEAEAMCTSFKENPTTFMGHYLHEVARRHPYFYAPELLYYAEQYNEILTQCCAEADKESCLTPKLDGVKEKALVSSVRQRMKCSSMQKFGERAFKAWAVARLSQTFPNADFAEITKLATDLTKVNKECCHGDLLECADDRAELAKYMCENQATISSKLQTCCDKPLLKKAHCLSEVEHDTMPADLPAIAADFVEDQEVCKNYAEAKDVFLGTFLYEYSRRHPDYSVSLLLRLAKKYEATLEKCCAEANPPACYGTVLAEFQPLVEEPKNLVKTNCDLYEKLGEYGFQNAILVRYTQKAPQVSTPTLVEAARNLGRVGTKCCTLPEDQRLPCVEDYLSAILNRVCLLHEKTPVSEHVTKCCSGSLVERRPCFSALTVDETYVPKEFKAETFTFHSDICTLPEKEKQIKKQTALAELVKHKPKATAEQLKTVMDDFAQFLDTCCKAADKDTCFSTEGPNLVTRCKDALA
UniProt P02770, residues 25-608: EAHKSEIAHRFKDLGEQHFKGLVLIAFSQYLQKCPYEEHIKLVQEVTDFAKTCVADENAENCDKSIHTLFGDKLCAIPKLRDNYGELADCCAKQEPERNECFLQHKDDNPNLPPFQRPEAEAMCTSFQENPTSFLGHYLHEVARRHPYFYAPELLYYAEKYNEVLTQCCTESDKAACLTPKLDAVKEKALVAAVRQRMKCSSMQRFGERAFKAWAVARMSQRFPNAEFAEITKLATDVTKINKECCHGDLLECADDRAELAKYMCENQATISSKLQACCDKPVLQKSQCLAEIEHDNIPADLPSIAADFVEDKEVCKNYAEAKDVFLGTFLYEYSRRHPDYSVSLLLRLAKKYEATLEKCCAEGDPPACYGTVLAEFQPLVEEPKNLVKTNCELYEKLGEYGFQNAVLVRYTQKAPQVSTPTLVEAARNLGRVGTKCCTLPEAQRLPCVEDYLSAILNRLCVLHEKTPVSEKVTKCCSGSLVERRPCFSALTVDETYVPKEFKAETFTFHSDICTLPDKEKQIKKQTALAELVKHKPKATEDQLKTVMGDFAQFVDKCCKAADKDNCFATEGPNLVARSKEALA
UniProt P07766, residues 23-126: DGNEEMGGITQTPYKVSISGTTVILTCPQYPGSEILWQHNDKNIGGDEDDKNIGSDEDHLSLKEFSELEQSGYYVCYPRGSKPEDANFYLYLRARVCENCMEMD

Tests used:
[1] = target: human serum albumin (human) (UniProt P02768); assay: phage ELISA summary (FIG. 18C)
[2] = target: mouse serum albumin (mouse) (UniProt P07724); assay: phage ELISA summary (FIG. 18C)
[3] = target: rat serum albumin (rat) (UniProt P02770); assay: phage ELISA summary (FIG. 18C)
[4] = target: human serum albumin (human) (UniProt P02768); assay: phage display selection from TRX-3 library
[5] = target: human serum albumin (human) (UniProt P02768); assay: phage ELISA, HSA-biotin on streptavidin plate
[6] = target: human serum albumin (human) (UniProt P02768); assay: phage ELISA, HSA-biotin on streptavidin plate (FIG. 18B)
[7] = target: mouse serum albumin (mouse) (UniProt P07724); assay: phage ELISA, MSA-biotin on streptavidin plate (FIG. 18B)
[8] = target: rat serum albumin (rat) (UniProt P02770); assay: phage ELISA, RSA-biotin on streptavidin plate (FIG. 18B)
[9] = target: human serum albumin (human) (UniProt P02768); assay: phage ELISA in triplets, HSA-biotin on streptavidin plate
[10] = target: human serum albumin (human) (UniProt P02768); assay: SPR, Biacore T100, HSA on CM5 chip
[11] = target: human serum albumin (human) (UniProt P02768); assay: SPR, Biacore T100, compared with the wild type TRX fusion
[12] = target: T1, LGR5-Fc (UniProt O75473); assay: phage display selection from TRX-3 library
T1 sequence (biotinylated with BirA + ATP + Biotin, looked up): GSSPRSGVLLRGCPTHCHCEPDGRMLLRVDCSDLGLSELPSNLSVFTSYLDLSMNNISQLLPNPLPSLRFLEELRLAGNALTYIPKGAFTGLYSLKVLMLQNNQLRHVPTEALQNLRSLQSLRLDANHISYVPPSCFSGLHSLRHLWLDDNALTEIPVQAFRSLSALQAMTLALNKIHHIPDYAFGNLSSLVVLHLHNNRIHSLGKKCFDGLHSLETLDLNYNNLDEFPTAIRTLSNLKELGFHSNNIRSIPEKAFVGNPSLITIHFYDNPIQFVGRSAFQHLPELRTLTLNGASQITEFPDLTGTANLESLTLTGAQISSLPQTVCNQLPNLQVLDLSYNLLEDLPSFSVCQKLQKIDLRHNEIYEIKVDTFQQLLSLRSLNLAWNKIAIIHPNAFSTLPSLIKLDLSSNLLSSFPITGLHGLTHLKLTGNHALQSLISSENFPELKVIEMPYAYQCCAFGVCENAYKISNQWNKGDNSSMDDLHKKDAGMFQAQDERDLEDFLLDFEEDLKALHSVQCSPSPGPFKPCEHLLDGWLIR

[13] = target: CD3e (recombinant target protein of Table 9) (UniProt P07766); assay: phage display selection from TRX-3 library

Measured: binding

B1: HSA binder E2 (TRX-3 library), phage-displayed (designed binder)
chain: MVKQIESKTAFQEALDAAGDKLVVVDFSATKNEKRDVAEWSGPSKMIKPFFHSLSEKYSNVIFLEVDVDDAQDVASEAFGFFGFPVLPTFQFFKKGQKVGEFSGANKEKLEATINELV
binds: [1] | [2] | [3] | [4] | [5] | [6] | [7] | [8] | [9]

B2: RLuc-E2 (protein, not shown: large carriers)
chain: MVKQIESKTAFQEALDAAGDKLVVVDFSATKNEKRDVAEWSGPSKMIKPFFHSLSEKYSNVIFLEVDVDDAQDVASEAFGFFGFPVLPTFQFFKKGQKVGEFSGANKEKLEATINELV
binds: [10] | [11]

B3: mutant TRX protein E2 (HSA binder, purified) (designed binder)
chain: MVKQIESKTAFQEALDAAGDKLVVVDFSATKNEKRDVAEWSGPSKMIKPFFHSLSEKYSNVIFLEVDVDDAQDVASEAFGFFGFPVLPTFQFFKKGQKVGEFSGANKEKLEATINELV
binds: [10]

B4: LGR5 binder A7 (TRX-3 library) (designed binder)
chain: MVKQIESKTAFQEALDAAGDKLVVVDFSATSWSGPSKMIKPFFHSLSEKYSNVIFLEVDVDDAQDVASEAAWLTPNRVPPTFQFFKKGQKVGEFSGANKEKLEATINELV
binds: [12]

B5: CD3ε binder C4 (TRX-3 library) (designed binder)
chain: MVKQIESKTAFQEALDAAGDKLVVVDFSATVTCDHEGCKWSGPSKMIKPFFHSLSEKYSNVIFLEVDVDDAQDVASEASNFAVTFFFPTFQFFKKGQKVGEFSGANKEKLEATINELV
binds: [13]

B6: HSA binder H6 (TRX-3 library), phage-displayed (designed binder)
chain: MVKQIESKTAFQEALDAAGDKLVVVDFSATDRKPWKTRGWSGPSKMIKPFFHSLSEKYSNVIFLEVDVDDAQDVASEAFGLFSFPLLPTFQFFKKGQKVGEFSGANKEKLEATINELV
binds: [1] | [2] | [3] | [4] | [5] | [6] | [7] | [8] | [9]

B7: mutant TRX protein H6 (HSA binder, purified) (designed binder)
chain: MVKQIESKTAFQEALDAAGDKLVVVDFSATDRKPWKTRGWSGPSKMIKPFFHSLSEKYSNVIFLEVDVDDAQDVASEAFGLFSFPLLPTFQFFKKGQKVGEFSGANKEKLEATINELV
binds: [10]

B8: LGR5 binder D2 (TRX-3 library) (designed binder)
chain: MVKQIESKTAFQEALDAAGDKLVVVDFSATRYEETTRQHWSGPSKMIKPFFHSLSEKYSNVIFLEVDVDDAQDVASEARVASKRSAFPTFQFFKKGQKVGEFSGANKEKLEATINELV
binds: [12]

B9: HSA binder C6 (TRX-3 library), phage-displayed (designed binder)
chain: MVKQIESKTAFQEALDAAGDKLVVVDFSATCQTGTKQLPWSGPSKMIKPFFHSLSEKYSNVIFLEVDVDDAQDVASEAFGHFGFPTLPTFQFFKKGQKVGEFSGANKEKLEATINELV
binds: [1] | [2] | [3] | [4] | [5] | [6] | [7] | [8] | [9]

B10: CD3ε binder E8 (TRX-3 library) (designed binder)
chain: MVKQIESKTAFQEALDAAGDKLVVVDFSATNRRPQRNAKWSGPSKMIKPFFHSLSEKYSNVIFLEVDVDDAQDVASEALMLFFSRIIPTFQFFKKGQKVGEFSGANKEKLEATINELV
binds: [13]

B11: LGR5 binder B2 (TRX-3 library) (designed binder)
chain: MVKQIESKTAFQEALDAAGDKLVVVDFSATSANSGWCCGWSGPSKMIKPFFHSLSEKYSNVIFLEVDVDDAQDVASEALDIESFLYFPTFQFFKKGQKVGEFSGANKEKLEATINELV
binds: [12]

B12: HSA binder E1 (TRX-3 library), phage-displayed (designed binder)
chain: MVKQIESKTAFQEALDAAGDKLVVVDFSATRSENDRWNEWSGPSKMIKPFFHSLSEKYSNVIFLEVDVDDAQDVASEALIAGPFWYSPTFQFFKKGQKVGEFSGANKEKLEATINELV
binds: [1] | [4] | [5] | [6] | [9]

B13: LGR5 binder E7 (TRX-3 library) (designed binder)
chain: MVKQIESKTAFQEALDAAGDKLVVVDFSATKWESPYEAVWSGPSKMIKPFFHSLSEKYSNVIFLEVDVDDAQDVASEALSHSVPYYLPTFQFFKKGQKVGEFSGANKEKLEATINELV
binds: [12]

B14: CD3ε binder C7 (TRX-3 library) (designed binder)
chain: MVKQIESKTAFQEALDAAGDKLVVVDFSATSARVWSCIPWSGPSKMIKPFFHSLSEKYSNVIFLEVDVDDAQDVASEASRPLTLIRSPTFQFFKKGQKVGEFSGANKEKLEATINELV
binds: [13]

B15: HSA binder G5 (TRX-3 library), phage-displayed (designed binder)
chain: MVKQIESKTAFQEALDAAGDKLVVVDFSATRLRTGGHPYWSGPSKMIKPFFHSLSEKYSNVIFLEVDVDDAQDVASEAVYVSLSRHRPTFQFFKKGQKVGEFSGANKEKLEATINELV
binds: [1] | [4] | [5] | [6] | [9]

B16: LGR5 binder B5 (TRX-3 library) (designed binder)
chain: MVKQIESKTAFQEALDAAGDKLVVVDFSATEEKGYEGRRWSGPSKMIKPFFHSLSEKYSNVIFLEVDVDDAQDVASEAYVPFSLSGYPTFQFFKKGQKVGEFSGANKEKLEATINELV
binds: [12]

B17: HSA binder F3 (TRX-3 library), phage-displayed (designed binder)
chain: MVKQIESKTAFQEALDAAGDKLVVVDFSATGGTPGRRNRWSGPSKMIKPFFHSLSEKYSNVIFLEVDVDDAQDVASEAFCEFCFPFLPTFQFFKKGQKVGEFSGANKEKLEATINELV
binds: [1] | [2] | [3] | [4] | [5] | [6] | [7] | [8] | [9]

B18: mutant TRX protein F3 (HSA binder, purified) (designed binder)
chain: MVKQIESKTAFQEALDAAGDKLVVVDFSATGGTPGRRNRWSGPSKMIKPFFHSLSEKYSNVIFLEVDVDDAQDVASEAFCEFCFPFLPTFQFFKKGQKVGEFSGANKEKLEATINELV
binds: [10]

B19: HSA binder E5 (TRX-3 library), phage-displayed (designed binder)
chain: MVKQIESKTAFQEALDAAGDKLVVVDFSATRRNERARDWWSGPSKMIKPFFHSLSEKYSNVIFLEVDVDDAQDVASEALAAGPFYLLPTFQFFKKGQKVGEFSGANKEKLEATINELV
binds: [1] | [4] | [5] | [6] | [9]

B20: CD3ε binder C8 (TRX-3 library) (designed binder)
chain: MVKQIESKTAFQEALDAAGDKLVVVDFSATPKARTKRNSWSGPSKMIKPFFHSLSEKYSNVIFLEVDVDDAQDVASEAMIFGRLVIIPTFQFFKKGQKVGEFSGANKEKLEATINELV
binds: [13]

B21: CD3ε binder A3 (TRX-3 library) (designed binder)
chain: MVKQIESKTAFQEALDAAGDKLVVVDFSATGRCYVDGRLWSGPSKMIKPFFHSLSEKYSNVIFLEVDVDDAQDVASEAKRMLCLVRTPTFQFFKKGQKVGEFSGANKEKLEATINELV
binds: [13]
